Experimental data published in US20160137714A1 (Thrasos Innovation, Inc., priority 2014, published 2016).

Key:
[1] = general procedure: Fmoc solid-phase peptide synthesis; Fmoc-Ser(tBu)-Wang; conditions: whole synthesis, TFA salt
[2] = general procedure: Fmoc solid-phase peptide synthesis; Wang resin; conditions: whole synthesis, TFA salt
[3] = one disulfide bridge, sequence written open

| Substance | final HPLC purity [1] [%] | also measured |
| --- | --- | --- |
| PEPTIDE1{C.Y.Y.D.D.S.S.S.V.L.C.K.K.Y.R.S}$PEPTIDE1,PEPTIDE1,1:R3-11:R3$$$V2.0 | >95 |  |
| CYFDDSSNVLCK (cysteine pairing not given here) |  | final HPLC purity [2, 3]: >95% |
| PEPTIDE1{C.Y.F.D.D.S.S.N.V.L.C.K.R.[dY].R.S}$PEPTIDE1,PEPTIDE1,1:R3-11:R3$$$V2.0 | >95 |  |
| PEPTIDE1{C.Y.F.D.D.S.S.N.V.L.C.K.K.Y.[dR].S}$PEPTIDE1,PEPTIDE1,1:R3-11:R3$$$V2.0 | >95 |  |
| PEPTIDE1{C.Y.Y.D.N.S.S.S.V.L.C.K.R.[dY].R.S}$PEPTIDE1,PEPTIDE1,1:R3-11:R3$$$V2.0 | >95 |  |
| PEPTIDE1{C.Y.F.D.D.S.S.N.V.L.C}$PEPTIDE1,PEPTIDE1,1:R3-11:R3$$$V2.0 |  | final HPLC purity [2]: >95% |
| PEPTIDE1{C.Y.F.D.D.S.S.N.V.L.C.K.[dK].Y.R.S}$PEPTIDE1,PEPTIDE1,1:R3-11:R3$$$V2.0 | >95 |  |
| PEPTIDE1{C.Y.Y.D.N.S.S.S.V.L.C.K.R.Y.R.S}$PEPTIDE1,PEPTIDE1,1:R3-11:R3$$$V2.0 | >95 |  |
| PEPTIDE1{C.Y.Y.F.N.S.S.Q.V.L.C.K.R.[dY].R.S}$PEPTIDE1,PEPTIDE1,1:R3-11:R3$$$V2.0 | >95 |  |
| PEPTIDE1{C.Y.Y.D.D.S.S.S.V.L.C.K.K.[dY].R.S}$PEPTIDE1,PEPTIDE1,1:R3-11:R3$$$V2.0 | >95 |  |
| PEPTIDE1{C.Y.F.D.D.S.S.N.V.L.C.K.K.Y}$PEPTIDE1,PEPTIDE1,1:R3-11:R3$$$V2.0 |  | final HPLC purity [2]: >95% |
| PEPTIDE1{C.Y.Y.D.N.S.S.S.V.L.C.K.K.[dY].R.S}$PEPTIDE1,PEPTIDE1,1:R3-11:R3$$$V2.0 | >95 |  |
| PEPTIDE1{C.Y.Y.D.N.S.S.S.V.L.C.K.K.Y.R.S}$PEPTIDE1,PEPTIDE1,1:R3-11:R3$$$V2.0 | >95 |  |
| PEPTIDE1{C.Y.F.D.D.S.S.N.V.L.C.K.R.Y.R.S}$PEPTIDE1,PEPTIDE1,1:R3-11:R3$$$V2.0 | >95 |  |
| CYFDDSSNVLCKK (cysteine pairing not given here) |  | final HPLC purity [2, 3]: >95% |

One purity is given for all peptides; the source may state it once. HELM strings list residues between dots; [ac] is acetyl, [am] amide, other brackets name non-standard units. No end group written: not given here.
